The data set deals with CD44 in gastric carcinoma and surrounding tissues. As to the kind of experiment: Immunohistochemistry of human gastric cancer tissue microarray. As to the method:
Prepared paraffin-embedded sections were deparaffinized, rehydrated, retrieved and blocked with 5% BSA (w/v) in PBS at ambient temperature for 30 min. Then, sections were incubated with 100 μM biotin labeled RP-1 peptide or human specific rabbit anti-CD44 monoclonal antibody (1:200, ZSGB-BIO, Beijing, China) overnight at 4°C. After PBS washing for three times, sections were subsequently incubated with streptavidin-HRP (1:500, Proteintech, Wuhan, China) and goat anti-rabbit secondary antibody (1:300, BOSTER, Wuhan, China). Diaminobenzidine (DAB, ZSGB-BIO, Beijing, China) was used as a chromogen. Finally, the sections were counterstained with hematoxylin and mounted with neutral balsam.
Two TMA slides (Shanghai Outdo Biotech Co LTD, Shanghai, China), each containing 100 GC tissues samples (including 66 adenocarcinoma, 19 tubular adenocarcinoma, 8 mucinous adenocarcinoma, 2 undifferentiated carcinoma and 5 signet-ring cell carcinoma tissue samples) and 80 surrounding tissue samples from 100 patients, were used to evaluate the diagnostic and prognostic effects of RP-1. Samples were obtained from treatment-naive patients with written informed consent signed and dated. Age of the 100 patients with GC ranged from 32 to 81 years (mean, 64.4 years). Their clinicopathological characteristics were described in Table 2. The TNM stage of all patients with GC was assessed according to the American Joint Commission for Cancer (AJCC 7th edition) and tumors were histologically classified according to the criteria described by the World Health Organization (2000). The Medical Ethics Committee of Taizhou Hospital of Zhejiang province reviewed and approved all studies.
We performed immunohistochemical staining of TMA slides with RP-1 and human specific anti-CD44 monoclonal antibody by following the procedure described in the section Immunohistochemistry. The immunoreactivity was assessed with the immunohistochemistry score (HSCORE) system, which evaluated the staining intensity and percentages of positive cells stained at a specific magnitude of intensity. The HSCORE was calculated using the equation HSCORE=∑Pi(i) (i = 0, 1, 2, 3, Pi = 0–100%), in which i was the staining intensity (0, no staining; 1, weak staining; 2, moderate staining; 3, strong staining) and Pi was the percentage of positive cells on a scale of 0% to 100%. Positive cell count was assessed in 5 randomly selected fields of vision with a microscope (400×). All immunohistochemical evaluations were conducted by two independent pathologists […].
Receiver–operator curve (ROC) analysis was performed to determine the cut-off score for both RP-1 peptide and anti-CD44 monoclonal antibody. […]

Regarding “WHPWSYLWTQQA [RP-1, CD44-specific peptide … screened from a 12-mer phage peptide library]”, for the setting “80 surrounding tissue samples”, the false-positive rate amounted to 12.5%. The sequence further returned a specificity (80 surrounding tissue samples, RP-1 vs antibody P = 0.403) of 87.5%. This sequence also had a sensitivity (100 gastric carcinoma samples, RP-1 vs antibody P = 0.124) of 73.0%. In addition, the “AUC of ROC curve” value (diagnosis of GC, carcinoma vs surrounding tissue) is 0.86.

For the origin of these results see publication PMC5444726, “A CD44-specific peptide, RP-1, exhibits capacities of assisting diagnosis and predicting prognosis of gastric cancer” (Oncotarget, 2017).
